Test results: the supplement of paper PMC10849652
This is one part of the list.

By UniProt entry, the sequences of proteins in these tests, tags left out. Where a name states a change or a piece, a line headed by the entry shows the natural chain unless it says otherwise.
UniProt Q5T3I0: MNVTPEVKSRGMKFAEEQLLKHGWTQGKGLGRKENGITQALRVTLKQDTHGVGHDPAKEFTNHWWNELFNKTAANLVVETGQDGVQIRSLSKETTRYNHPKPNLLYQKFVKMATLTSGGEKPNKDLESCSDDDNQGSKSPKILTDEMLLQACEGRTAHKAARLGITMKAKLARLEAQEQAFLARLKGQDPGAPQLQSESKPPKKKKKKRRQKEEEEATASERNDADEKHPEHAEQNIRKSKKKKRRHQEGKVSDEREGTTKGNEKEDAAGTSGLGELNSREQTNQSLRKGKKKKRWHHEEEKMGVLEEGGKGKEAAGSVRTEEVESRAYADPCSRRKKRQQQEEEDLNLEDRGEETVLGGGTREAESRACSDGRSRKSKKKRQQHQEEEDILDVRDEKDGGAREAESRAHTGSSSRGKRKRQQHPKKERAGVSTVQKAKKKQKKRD
UniProt Q9Y223: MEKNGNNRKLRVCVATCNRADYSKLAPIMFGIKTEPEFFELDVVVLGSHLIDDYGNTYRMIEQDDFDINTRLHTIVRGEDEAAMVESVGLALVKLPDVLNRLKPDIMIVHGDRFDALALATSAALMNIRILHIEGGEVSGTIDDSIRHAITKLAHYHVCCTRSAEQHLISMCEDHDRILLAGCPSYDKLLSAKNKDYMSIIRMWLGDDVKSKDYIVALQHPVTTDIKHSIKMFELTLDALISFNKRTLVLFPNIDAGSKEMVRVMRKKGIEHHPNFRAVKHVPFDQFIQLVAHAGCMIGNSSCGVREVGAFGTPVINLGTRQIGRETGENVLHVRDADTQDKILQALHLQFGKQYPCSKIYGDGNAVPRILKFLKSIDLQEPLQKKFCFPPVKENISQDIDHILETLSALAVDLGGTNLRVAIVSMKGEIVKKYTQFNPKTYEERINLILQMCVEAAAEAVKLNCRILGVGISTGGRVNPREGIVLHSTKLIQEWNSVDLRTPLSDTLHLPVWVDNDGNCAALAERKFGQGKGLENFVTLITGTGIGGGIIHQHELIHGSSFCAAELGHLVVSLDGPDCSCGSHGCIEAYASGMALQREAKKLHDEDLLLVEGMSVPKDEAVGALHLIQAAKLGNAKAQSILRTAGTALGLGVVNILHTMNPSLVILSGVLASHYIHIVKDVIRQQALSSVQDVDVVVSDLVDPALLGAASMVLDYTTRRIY
UniProt Q9NPR9: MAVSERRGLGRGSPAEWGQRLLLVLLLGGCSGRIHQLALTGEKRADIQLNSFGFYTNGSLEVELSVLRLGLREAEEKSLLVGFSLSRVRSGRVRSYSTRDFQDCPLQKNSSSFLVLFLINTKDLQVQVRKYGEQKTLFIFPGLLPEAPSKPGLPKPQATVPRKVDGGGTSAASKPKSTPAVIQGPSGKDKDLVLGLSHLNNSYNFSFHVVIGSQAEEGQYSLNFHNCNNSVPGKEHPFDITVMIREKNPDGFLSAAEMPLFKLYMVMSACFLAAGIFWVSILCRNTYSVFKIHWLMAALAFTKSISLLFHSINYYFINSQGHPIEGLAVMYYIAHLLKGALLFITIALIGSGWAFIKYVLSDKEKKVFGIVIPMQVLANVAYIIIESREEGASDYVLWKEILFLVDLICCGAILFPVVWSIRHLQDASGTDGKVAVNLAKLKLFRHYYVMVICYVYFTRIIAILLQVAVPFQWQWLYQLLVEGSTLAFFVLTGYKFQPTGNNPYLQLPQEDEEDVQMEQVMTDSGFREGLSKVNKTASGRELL
UniProt P62879, whole entry, looked up: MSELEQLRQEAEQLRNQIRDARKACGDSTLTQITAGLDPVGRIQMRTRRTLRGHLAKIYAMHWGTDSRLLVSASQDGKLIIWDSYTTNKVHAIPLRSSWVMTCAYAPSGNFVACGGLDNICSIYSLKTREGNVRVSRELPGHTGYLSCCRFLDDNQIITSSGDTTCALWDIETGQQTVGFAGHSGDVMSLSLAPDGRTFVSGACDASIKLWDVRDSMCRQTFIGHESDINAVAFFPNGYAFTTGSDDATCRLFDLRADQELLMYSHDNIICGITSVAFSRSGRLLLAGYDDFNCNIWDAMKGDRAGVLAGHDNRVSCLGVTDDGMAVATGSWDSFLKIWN
UniProt O94925: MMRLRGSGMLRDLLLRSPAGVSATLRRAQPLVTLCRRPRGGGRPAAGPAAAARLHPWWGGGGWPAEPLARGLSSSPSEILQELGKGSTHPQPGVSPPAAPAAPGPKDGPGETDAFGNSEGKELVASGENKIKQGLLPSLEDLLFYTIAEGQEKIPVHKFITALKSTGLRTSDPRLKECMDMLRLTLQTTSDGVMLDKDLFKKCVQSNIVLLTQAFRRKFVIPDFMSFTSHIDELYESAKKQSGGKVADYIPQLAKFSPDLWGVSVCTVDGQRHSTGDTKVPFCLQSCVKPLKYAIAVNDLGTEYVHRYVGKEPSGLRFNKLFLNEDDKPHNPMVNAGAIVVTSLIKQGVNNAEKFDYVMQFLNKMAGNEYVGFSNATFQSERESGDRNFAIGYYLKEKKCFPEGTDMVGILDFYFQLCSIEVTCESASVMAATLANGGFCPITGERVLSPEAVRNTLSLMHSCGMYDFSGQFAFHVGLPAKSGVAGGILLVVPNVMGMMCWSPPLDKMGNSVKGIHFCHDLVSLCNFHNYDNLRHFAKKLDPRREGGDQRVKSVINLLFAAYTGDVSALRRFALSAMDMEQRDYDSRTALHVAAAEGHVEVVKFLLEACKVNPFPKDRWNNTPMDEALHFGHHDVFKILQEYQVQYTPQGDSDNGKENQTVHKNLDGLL
UniProt Q86V85: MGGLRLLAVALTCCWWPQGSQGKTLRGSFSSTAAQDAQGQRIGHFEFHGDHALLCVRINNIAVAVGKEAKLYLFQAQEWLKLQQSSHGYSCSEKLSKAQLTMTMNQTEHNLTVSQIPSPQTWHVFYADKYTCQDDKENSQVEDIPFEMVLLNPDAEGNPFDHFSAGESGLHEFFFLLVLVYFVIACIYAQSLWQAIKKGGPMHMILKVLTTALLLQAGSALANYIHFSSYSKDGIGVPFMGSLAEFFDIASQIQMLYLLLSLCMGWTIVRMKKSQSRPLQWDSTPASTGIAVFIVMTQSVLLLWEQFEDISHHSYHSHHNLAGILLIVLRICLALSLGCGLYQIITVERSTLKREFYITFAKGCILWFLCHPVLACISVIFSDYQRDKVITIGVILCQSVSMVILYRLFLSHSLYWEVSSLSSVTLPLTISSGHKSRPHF
UniProt O14653: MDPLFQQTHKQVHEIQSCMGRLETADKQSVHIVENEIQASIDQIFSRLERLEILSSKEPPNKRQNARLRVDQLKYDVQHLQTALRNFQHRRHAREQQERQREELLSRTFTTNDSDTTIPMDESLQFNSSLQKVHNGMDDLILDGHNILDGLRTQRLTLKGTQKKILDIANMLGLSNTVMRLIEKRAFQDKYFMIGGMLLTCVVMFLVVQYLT
UniProt P22352, whole entry, looked up: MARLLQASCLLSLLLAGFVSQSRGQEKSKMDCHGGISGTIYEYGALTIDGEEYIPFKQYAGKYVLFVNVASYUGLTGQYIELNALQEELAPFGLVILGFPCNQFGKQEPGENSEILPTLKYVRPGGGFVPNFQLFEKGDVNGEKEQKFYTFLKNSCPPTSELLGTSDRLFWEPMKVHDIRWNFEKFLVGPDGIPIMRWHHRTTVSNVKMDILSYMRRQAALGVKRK
UniProt P13224: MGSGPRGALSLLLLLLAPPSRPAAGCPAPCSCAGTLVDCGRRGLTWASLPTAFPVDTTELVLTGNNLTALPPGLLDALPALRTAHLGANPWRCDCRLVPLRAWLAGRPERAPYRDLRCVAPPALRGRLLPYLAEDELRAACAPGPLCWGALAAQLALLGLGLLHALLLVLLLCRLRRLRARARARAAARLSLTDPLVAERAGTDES
UniProt Q13439: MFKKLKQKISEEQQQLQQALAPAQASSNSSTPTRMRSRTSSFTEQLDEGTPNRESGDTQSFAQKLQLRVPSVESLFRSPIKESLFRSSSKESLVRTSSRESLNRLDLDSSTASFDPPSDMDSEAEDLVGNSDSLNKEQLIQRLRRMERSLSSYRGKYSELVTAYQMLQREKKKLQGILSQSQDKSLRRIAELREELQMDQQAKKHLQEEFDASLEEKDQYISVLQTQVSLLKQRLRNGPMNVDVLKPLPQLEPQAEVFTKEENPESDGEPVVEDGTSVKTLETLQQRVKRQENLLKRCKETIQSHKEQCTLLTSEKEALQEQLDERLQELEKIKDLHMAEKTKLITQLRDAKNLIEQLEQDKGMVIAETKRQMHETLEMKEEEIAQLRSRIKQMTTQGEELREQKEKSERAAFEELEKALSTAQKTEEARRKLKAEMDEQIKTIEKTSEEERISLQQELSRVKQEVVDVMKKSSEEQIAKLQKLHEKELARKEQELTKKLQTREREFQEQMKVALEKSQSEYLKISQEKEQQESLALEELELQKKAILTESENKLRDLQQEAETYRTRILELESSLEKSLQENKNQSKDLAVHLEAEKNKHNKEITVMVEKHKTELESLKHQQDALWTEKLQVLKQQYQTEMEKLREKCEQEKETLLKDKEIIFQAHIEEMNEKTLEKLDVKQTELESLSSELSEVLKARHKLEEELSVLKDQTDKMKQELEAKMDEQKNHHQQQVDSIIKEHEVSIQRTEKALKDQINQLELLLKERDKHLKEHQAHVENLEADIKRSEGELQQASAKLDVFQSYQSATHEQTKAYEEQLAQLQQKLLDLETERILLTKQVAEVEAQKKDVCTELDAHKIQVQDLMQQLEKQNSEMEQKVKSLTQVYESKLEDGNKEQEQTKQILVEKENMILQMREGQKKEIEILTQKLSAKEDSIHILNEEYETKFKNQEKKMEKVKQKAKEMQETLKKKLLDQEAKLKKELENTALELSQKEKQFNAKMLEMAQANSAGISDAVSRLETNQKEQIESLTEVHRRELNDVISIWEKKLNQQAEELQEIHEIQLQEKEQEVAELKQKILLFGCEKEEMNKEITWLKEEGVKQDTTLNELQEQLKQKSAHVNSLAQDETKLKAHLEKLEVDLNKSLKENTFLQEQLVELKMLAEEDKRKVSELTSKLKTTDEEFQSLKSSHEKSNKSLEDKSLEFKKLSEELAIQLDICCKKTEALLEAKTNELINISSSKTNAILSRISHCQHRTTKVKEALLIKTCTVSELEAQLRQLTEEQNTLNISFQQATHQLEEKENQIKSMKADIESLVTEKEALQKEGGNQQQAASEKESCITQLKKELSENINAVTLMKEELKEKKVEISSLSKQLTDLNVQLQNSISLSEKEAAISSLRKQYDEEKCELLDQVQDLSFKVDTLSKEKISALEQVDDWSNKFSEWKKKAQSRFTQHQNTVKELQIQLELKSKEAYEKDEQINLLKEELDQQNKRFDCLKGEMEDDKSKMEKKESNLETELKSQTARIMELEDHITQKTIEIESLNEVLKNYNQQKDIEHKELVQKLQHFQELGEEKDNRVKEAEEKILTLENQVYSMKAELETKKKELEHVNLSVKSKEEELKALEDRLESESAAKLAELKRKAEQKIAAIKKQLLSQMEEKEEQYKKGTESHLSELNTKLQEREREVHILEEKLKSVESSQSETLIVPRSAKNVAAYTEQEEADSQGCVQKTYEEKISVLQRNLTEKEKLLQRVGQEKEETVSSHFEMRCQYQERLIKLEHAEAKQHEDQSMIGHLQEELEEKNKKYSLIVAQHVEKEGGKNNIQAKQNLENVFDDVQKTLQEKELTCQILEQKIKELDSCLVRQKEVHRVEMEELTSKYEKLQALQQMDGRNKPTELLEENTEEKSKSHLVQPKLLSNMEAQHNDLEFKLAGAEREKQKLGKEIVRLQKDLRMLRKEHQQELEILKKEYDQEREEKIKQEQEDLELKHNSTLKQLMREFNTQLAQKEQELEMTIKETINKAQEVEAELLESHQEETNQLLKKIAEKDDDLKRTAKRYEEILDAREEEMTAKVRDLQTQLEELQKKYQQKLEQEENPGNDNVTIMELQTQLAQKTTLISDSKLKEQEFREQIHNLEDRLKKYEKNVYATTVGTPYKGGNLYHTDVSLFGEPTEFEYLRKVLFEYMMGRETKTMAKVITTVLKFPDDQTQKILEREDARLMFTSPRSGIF
UniProt Q9HC44: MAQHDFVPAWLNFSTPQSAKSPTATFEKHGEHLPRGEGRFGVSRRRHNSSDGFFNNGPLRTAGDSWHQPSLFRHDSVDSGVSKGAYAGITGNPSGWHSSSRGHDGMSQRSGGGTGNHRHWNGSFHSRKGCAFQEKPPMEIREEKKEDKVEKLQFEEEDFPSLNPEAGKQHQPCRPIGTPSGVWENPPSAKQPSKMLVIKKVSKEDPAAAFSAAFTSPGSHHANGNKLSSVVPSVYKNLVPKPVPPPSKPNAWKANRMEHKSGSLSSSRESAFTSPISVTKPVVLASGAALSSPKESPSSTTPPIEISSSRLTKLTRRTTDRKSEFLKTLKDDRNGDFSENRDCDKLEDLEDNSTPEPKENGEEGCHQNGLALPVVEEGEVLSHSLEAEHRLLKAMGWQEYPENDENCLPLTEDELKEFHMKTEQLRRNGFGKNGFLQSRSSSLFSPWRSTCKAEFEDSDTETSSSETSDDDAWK

Experiments:
Experiment in all cases: log2 fold change, soluble protein after heating vs DMSO (PISA); higher = thermal stabilisation; K562 cells, 10 uM, 30 min; active = over 0.2 and 3.5 SD of the protein, either way, in both replicates (recomputed)
[1] = compound: C1=CC=C(C=C1)[C@H](COC2=CC3=C(C=C2)NC(=O)N3)NC(=O)C4=CC=CN(C4=O)CC5=CC(=C(C=C5)F)F
How it was run: (§1)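 Soluble protein was defined as the supernatant after 21,000xg for 90 min. It came from K562 cells at 2×10^6 cells/mL given 10 μM compound for 30 min, heated in aliquots for 3 min across 48°C-58°C, pooled, and extracted in PBS with 0.5% NP-40 at 4°C, and was quantified by TMTpro 16plex LC-MS/MS with equalised channel sums. Thermal stability against control samples, from duplicates, is reported as log2 fold change.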

[2] = compound: CC1=C(SC2=C1C(=N[C@H](C3=NN=C(N32)C)CC(=O)N)C4=CC=C(C=C4)Cl)C
How it was run: as §1

[3] = compound: CC1=C2C(=CC=C1)N=C(N(C2=O)C3=CC=CC=C3C)CN4C=NC5=C(N=CN=C54)N
How it was run: as §1

[4] = compound: Cc1sc2c(c1C)C(c1ccc(Cl)cc1)=N[C@@H](CC(=O)OC(C)(C)C)c1nnc(C)n1-2
How it was run: as §1

[5] = compound: c1ccc([C@@H]2C[C@H]2NC2CCNCC2)cc1
How it was run: as §1

Measured: log2 fold change

GRAP2 (UniProt O75791)
inactive: [1] -0.118 | [2] 0.183 | [3] 0.105 | [4] 0 | [5] -0.191

GLOD4 isoform 2 (UniProt Q9HC38)
inactive: [1] -0.067 | [2] 0.077 | [3] 0.046 | [4] -0.014 | [5] -0.055

GNPAT (UniProt O15228)
inactive: [1] -0.034 | [2] 0.043 | [3] 0.07 | [4] -0.01 | [5] -0.036

GOPC (UniProt Q9HD26)
inactive: [1] -0.315 | [2] -0.016 | [3] 0.018 | [4] 0.169 | [5] -0.054

GPATCH4 isoform 3 (UniProt Q5T3I0)
inactive: [1] -0.362 | [2] -0.328 | [3] -0.094 | [4] 0.174 | [5] -0.134

GNPTAB (UniProt Q3T906)
inactive: [1] -0.058 | [2] -0.113 | [3] 0.153 | [4] 0.134 | [5] -0.036

GOLGA7 (UniProt Q7Z5G4)
inactive: [1] 0.054 | [2] 0.082 | [3] 0.076 | [4] -0.05 | [5] 0.052

GPBP1 isoform 2 (UniProt Q86WP2)
inactive: [1] 0.112 | [2] -0.088 | [3] -0.096 | [4] 0.008 | [5] 0.002

Seven neighbouring entries out of the list so far:
GLOD4 isoform 2 (UniProt Q9HC38)
inactive: [1] -0.067 | [2] 0.077 | [3] 0.046 | [4] -0.014 | [5] -0.055

GNPAT (UniProt O15228)
inactive: [1] -0.034 | [2] 0.043 | [3] 0.07 | [4] -0.01 | [5] -0.036

GOPC (UniProt Q9HD26)
inactive: [1] -0.315 | [2] -0.016 | [3] 0.018 | [4] 0.169 | [5] -0.054

GPATCH4 isoform 3 (UniProt Q5T3I0)
inactive: [1] -0.362 | [2] -0.328 | [3] -0.094 | [4] 0.174 | [5] -0.134

GNPTAB (UniProt Q3T906)
inactive: [1] -0.058 | [2] -0.113 | [3] 0.153 | [4] 0.134 | [5] -0.036

GOLGA7 (UniProt Q7Z5G4)
inactive: [1] 0.054 | [2] 0.082 | [3] 0.076 | [4] -0.05 | [5] 0.052

GPBP1 isoform 2 (UniProt Q86WP2)
inactive: [1] 0.112 | [2] -0.088 | [3] -0.096 | [4] 0.008 | [5] 0.002

Next part

GMFG (UniProt O60234)
inactive: [1] 0.013 | [2] 0.056 | [3] 0.036 | [4] 0.001 | [5] 0.015

GNE isoform 2 (UniProt Q9Y223)
inactive: [1] -0.085 | [2] 0.1 | [3] 0.019 | [4] -0.003 | [5] -0.034

GPR108 (UniProt Q9NPR9)
inactive: [1] 0.061 | [2] 0.021 | [3] 0.083 | [4] -0.052 | [5] -0.043

GNB2 (UniProt P62879)
inactive: [1] 0.025 | [2] 0.045 | [3] 0.029 | [4] -0.09 | [5] -0.015

GMPPA (UniProt Q96IJ6)
inactive: [1] 0.002 | [2] 0.029 | [3] 0.047 | [4] -0.064 | [5] -0.003

GLS (UniProt O94925)
inactive: [1] -0.022 | [2] 0.114 | [3] 0.138 | [4] 0.013 | [5] 0.082

GINS1 (UniProt Q14691)
inactive: [1] -0.049 | [2] 0.029 | [3] -0.016 | [4] -0.029 | [5] -0.107

GPR180 (UniProt Q86V85)
inactive: [1] 0 | [2] -0.006 | [3] -0.013 | [4] -0.113 | [5] -0.049

GOSR2 isoform 2 (UniProt O14653)
inactive: [1] -0.072 | [2] 0.036 | [3] 0.026 | [4] -0.082 | [5] -0.099

GPX3 (UniProt P22352)
inactive: [1] -0.078 | [2] 0.041 | [3] 0.184 | [4] 0.083 | [5] -0.122

GPN1 isoform 5 (UniProt Q9HCN4)
inactive: [1] 0.033 | [2] -0.041 | [3] 0.062 | [4] -0.087 | [5] 0.019

GORASP2 isoform 3 (UniProt Q9H8Y8)
inactive: [1] -0.098 | [2] 0.033 | [3] 0.104 | [4] 0.016 | [5] -0.018

GNB4 (UniProt Q9HAV0)
inactive: [1] 0.001 | [2] -0.026 | [3] -0.062 | [4] -0.011 | [5] 0.047

GP1BB isoform 2 (UniProt P13224)
inactive: [1] -0.012 | [2] -0.03 | [3] 0.042 | [4] 0.011 | [5] 0.051

GOLGA4 isoform 5 (UniProt Q13439)
inactive: [1] -0.053 | [2] -0.042 | [3] 0.019 | [4] 0 | [5] -0.023

GPBP1L1 (UniProt Q9HC44)
inactive: [1] -0.001 | [2] -0.03 | [3] 0.13 | [4] 0.033 | [5] 0.008
